These are yes or no findings as the source states them, for the method shown. In cells and extracts the contact can be indirect. Some entries that bind do so weakly or less than the wild type. For some of these results: Sequences can lack the tags named with a protein. Values belong to the molecule of their own block, whether it stands above or below them.
Columns and labels:
HA-tagged PBX2 (human) = target: T1, HA-tagged PBX2 (human) (UniProt P40425); assay: co-IP; HOXA6-Flag and PBX2-HA co-transfected into AGS and BCG-823 cells; whole-cell extracts precipitated with anti-Flag and blotted with anti-HA, or precipitated with anti-HA and blotted with anti-Flag (normal mouse IgG as control)
T1 sequence: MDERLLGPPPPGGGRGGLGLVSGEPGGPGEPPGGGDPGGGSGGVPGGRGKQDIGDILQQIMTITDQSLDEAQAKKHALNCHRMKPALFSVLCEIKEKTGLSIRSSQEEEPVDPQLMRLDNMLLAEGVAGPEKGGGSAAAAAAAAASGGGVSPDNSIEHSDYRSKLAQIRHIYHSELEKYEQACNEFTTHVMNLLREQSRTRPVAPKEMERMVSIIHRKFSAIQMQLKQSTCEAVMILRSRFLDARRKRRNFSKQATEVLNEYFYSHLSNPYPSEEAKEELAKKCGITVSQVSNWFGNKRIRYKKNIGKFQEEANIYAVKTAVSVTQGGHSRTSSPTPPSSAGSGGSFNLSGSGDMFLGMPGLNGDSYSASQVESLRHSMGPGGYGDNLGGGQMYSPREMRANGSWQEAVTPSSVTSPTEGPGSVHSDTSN

Chains of the proteins cited; added tags and fusions are not shown.
UniProt P31267: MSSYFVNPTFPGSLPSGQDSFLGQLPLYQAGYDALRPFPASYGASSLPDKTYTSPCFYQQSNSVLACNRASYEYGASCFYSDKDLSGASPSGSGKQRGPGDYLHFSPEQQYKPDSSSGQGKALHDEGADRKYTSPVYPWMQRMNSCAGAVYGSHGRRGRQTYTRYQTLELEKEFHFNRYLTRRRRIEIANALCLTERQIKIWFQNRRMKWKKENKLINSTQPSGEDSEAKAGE

[1] = target: T2, PBX2 (human (endogenous in GC cell lines)) (UniProt P40425); assay: co-IP; endogenous proteins; whole-cell lysate of GC cells precipitated with anti-HOXA6 or anti-PBX2 (normal mouse IgG as control), blotted with the other antibody; 3 ug antibody and protein agarose beads, 4 C, 3 h
T2 sequence: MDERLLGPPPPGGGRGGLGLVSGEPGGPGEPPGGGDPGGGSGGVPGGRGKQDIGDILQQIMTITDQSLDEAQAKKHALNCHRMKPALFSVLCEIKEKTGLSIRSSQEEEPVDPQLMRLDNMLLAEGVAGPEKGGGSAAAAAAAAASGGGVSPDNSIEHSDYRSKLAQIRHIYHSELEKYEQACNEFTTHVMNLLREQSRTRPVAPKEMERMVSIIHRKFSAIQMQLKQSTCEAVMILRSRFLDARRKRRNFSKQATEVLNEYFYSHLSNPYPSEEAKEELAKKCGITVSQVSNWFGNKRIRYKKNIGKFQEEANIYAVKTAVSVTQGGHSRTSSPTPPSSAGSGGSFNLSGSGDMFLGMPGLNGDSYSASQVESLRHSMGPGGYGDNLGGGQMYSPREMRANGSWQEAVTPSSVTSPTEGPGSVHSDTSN

[2] = target: HOXA6 (human (endogenous in GC cell lines)) (UniProt P31267); assay: as above
[3] = target: Flag-tagged HOXA6 (human) (UniProt P31267); assay: co-IP; HOXA6-Flag and PBX2-HA co-transfected into AGS and BCG-823 cells; whole-cell extracts precipitated with anti-Flag and blotted with anti-HA, or precipitated with anti-HA and blotted with anti-Flag (normal mouse IgG as control)

binding (HA-tagged PBX2 (human)): binds
Molecule: Flag-tagged HOXA6 (from UniProt P31267 1-233)

binding [1]: binds
Molecule: HOXA6 (from UniProt P31267 1-233)

binding [2]: binds
B1: PBX2 (protein, UniProt P40425 1-430)
chain: MDERLLGPPPPGGGRGGLGLVSGEPGGPGEPPGGGDPGGGSGGVPGGRGKQDIGDILQQIMTITDQSLDEAQAKKHALNCHRMKPALFSVLCEIKEKTGLSIRSSQEEEPVDPQLMRLDNMLLAEGVAGPEKGGGSAAAAAAAAASGGGVSPDNSIEHSDYRSKLAQIRHIYHSELEKYEQACNEFTTHVMNLLREQSRTRPVAPKEMERMVSIIHRKFSAIQMQLKQSTCEAVMILRSRFLDARRKRRNFSKQATEVLNEYFYSHLSNPYPSEEAKEELAKKCGITVSQVSNWFGNKRIRYKKNIGKFQEEANIYAVKTAVSVTQGGHSRTSSPTPPSSAGSGGSFNLSGSGDMFLGMPGLNGDSYSASQVESLRHSMGPGGYGDNLGGGQMYSPREMRANGSWQEAVTPSSVTSPTEGPGSVHSDTSN

binding [3]: binds
B2: HA-tagged PBX2 (protein, UniProt P40425 1-430)
chain: MDERLLGPPPPGGGRGGLGLVSGEPGGPGEPPGGGDPGGGSGGVPGGRGKQDIGDILQQIMTITDQSLDEAQAKKHALNCHRMKPALFSVLCEIKEKTGLSIRSSQEEEPVDPQLMRLDNMLLAEGVAGPEKGGGSAAAAAAAAASGGGVSPDNSIEHSDYRSKLAQIRHIYHSELEKYEQACNEFTTHVMNLLREQSRTRPVAPKEMERMVSIIHRKFSAIQMQLKQSTCEAVMILRSRFLDARRKRRNFSKQATEVLNEYFYSHLSNPYPSEEAKEELAKKCGITVSQVSNWFGNKRIRYKKNIGKFQEEANIYAVKTAVSVTQGGHSRTSSPTPPSSAGSGGSFNLSGSGDMFLGMPGLNGDSYSASQVESLRHSMGPGGYGDNLGGGQMYSPREMRANGSWQEAVTPSSVTSPTEGPGSVHSDTSN
